Results of single-concentration screens

T. brucei: 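Whole-parasite assay of Trypanosoma brucei over 72 hours; the read-out is not stated. Compounds at 30 µM. Higher reads as stronger inhibition (inferred: compounds with an IC50 in retests scored well above the rest). Values scatter widely below zero; nearly all retest evidence comes from the higher of the two concentrations used. Of about 64,000 compounds tested this way, about 940 (1.5%) reached 50% or more in at least one test.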
Toxoplasma: 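Assay of Toxoplasma gondii numbers, read through their beta-galactosidase reporter with a colour substrate. Compounds at 10 µM. Higher reads as fewer parasites (inferred from which compounds were picked for retests). Size under these conditions: about 67,000 compounds, about 260 of them at 50% or above in at least one test.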

Each number is a percent effect as filed. The controls that fix the scale are not given in the record; negative values are as filed. This is an unselected part of the compounds tested. A dash means the value is not listed here; it may have been measured.

Compound,T. brucei,Toxoplasma
O=C(Cn1nnc(-c2cc3ccccc3o2)n1)N1CCOCC1,-21.26%,1.876%
Cc1ccc(N(C)S(=O)(=O)c2cc(C(=O)O)cs2)c(C)c1,-18.41%,-1.168%
O=C(NCCNc1ncccn1)C1CCN(c2ncccn2)CC1,21.92%,8.078%
CCC(C)NC(=O)c1ccc(NC(=O)CCCn2cncn2)c(C)c1 (stereo not shown),3.513%,-5.361%
Cc1cc(NC(=O)N2CCCC2CN2CCOCC2)nn1C (stereo not shown),-15.42%,0.1836%
CC(C(=O)N1CCOCC1)N1CCN(Cc2nccn2C)CC1 (stereo not shown),6.326%,19.37%
[H][C@@]12COC[C@]1(COCc1cccnc1)CN(C(=O)c1ncccn1)C2,-54.09%,-5.079%
CC(C)n1cnnc1CNC(=O)c1cnc2ccccc2n1,14.94%,-2.264%
Cc1ncsc1CCC(=O)NCc1csc(N(C)C)n1,-23.44%,-0.575%
CCc1cc(NCc2ccc(-n3cncn3)c(C)c2)n(C)n1,16.7%,-2.518%
[H][C@]12CC[C@]([H])(CN(C(=O)c3ccc(F)c(Cl)c3)C1)N(Cc1ccccc1)C2,4.031%,5.302%
CC(C)OCCCNC(=O)Nc1cccc2ncccc12,9.787%,-2.984%
CC(C#N)CNS(=O)(=O)c1ccc(Br)c(F)c1 (stereo not shown),14.76%,-8.049%
CC(C)(C)c1ccc2c(c1)CCN2C(=O)c1nc(=O)[nH][nH]1,-5.194%,-15.37%
CSCC[C@H](NC(=O)Cn1ccc2c(Cl)cccc21)C(=O)O,47.5%,-3.825%
Cc1nc(CN2CCCN(CCOc3ccc(C#N)cc3)CC2)no1,-24.24%,7.406%
O=C(O)C(F)(F)F.[H][C@@]12CCN(c3nnc(C)s3)C[C@]1([H])O[C@@H](C(=O)NC)C2,-178.5%,-14.49%
COCCC1(CO)CCCN(Cc2ccc(C(F)(F)F)cc2)C1 (stereo not shown),-20.08%,7.223%
Cn1nc(C2CCCC2)c(-c2ccc3c(c2)OCO3)c1N,-26.23%,-4.94%
O=C(O)C(F)(F)F.[H][C@@]12CN(CCC(C)C)C[C@]1([H])OCCN2c1ncc(F)cn1,-38.02%,21.46%
CN1N=C(C(=O)NCCc2ccc(OC3CCCC3)cc2)CCC1=O,-50.35%,5.622%
CCC1=NC2(CCC(C(=O)Nc3ccc(C)nc3)CC2)C(=O)N1C (stereo not shown),-42.52%,8.552%
CC1CN(C)CCN1C(=O)c1cnc2onc(CC(C)(C)C)c2c1 (stereo not shown),-4.402%,-0.1827%
NCCc1cccc(CN2CCN(c3cccc(Cl)c3)C(=O)C2)c1,-10.34%,2.368%
CN(Cc1cn2c(n1)CN(C1CCOCC1)CC2)Cc1ccco1.O=C(O)C(F)(F)F.O=C(O)C(F)(F)F,-13.08%,0.1012%
Cc1cccc(S(=O)(=O)NC(=O)c2ccc3c(c2)nnn3C)c1,-40.36%,-21.85%
CC(NC(=O)c1ccc(=O)n(C)c1)c1ccccc1-n1cccn1 (stereo not shown),-14.43%,5.538%
Cc1ccoc1C(=O)N1CCOCC2(CCN(c3ncccn3)C2)C1.O=C(O)C(F)(F)F (stereo not shown),-2.684%,5.369%
c1cncc(OCC2CN(Cc3ccco3)Cc3nccn3C2)c1 (stereo not shown),12.19%,6.242%
CCNC(=O)NC(C)(C)C(=O)NCc1cccc(N2CC=CC2)c1,-18.48%,-16.42%
O=C1CCC2(CCCO2)CCN1Cc1noc(C2CCCC2)n1 (stereo not shown),2.801%,4.909%
CCOCCS(=O)(=O)N(CC)Cc1ccc(Cl)s1,-13.74%,-4.202%
O=C(c1cscn1)N1CCCC12CCCN(S(=O)(=O)c1ccccc1)C2 (stereo not shown),-28.31%,-1.806%
CCn1ccnc1CN1CCCC(N(C)CCc2ccccc2)C1 (stereo not shown),-6.681%,3.812%
Cc1cnc(CNC(=O)N(CCCO)C2CCc3ccccc32)s1 (stereo not shown),-1.875%,6.921%
O=C(Cn1cnnn1)N1CCCCC1Cn1cccn1 (stereo not shown),-49.16%,-
Cc1nc2n(n1)CC(NCc1csc(-c3ccsc3)n1)CC2 (stereo not shown),10.08%,12.68%
CCSc1nc2ccccc2c(=O)n1OCC(=O)OC,-65.47%,15.82%
Clc1cnc(NCc2ccccc2N2CCOCC2)nc1,-9.368%,-31.67%
O=C(O)C(F)(F)F.[H][C@@]12COC[C@]1(COCC(=O)N(C)C)CN(Cc1ccco1)C2,-53.67%,25.47%
Cc1cnc(CNC(=O)c2cc3c(s2)CCN3S(C)(=O)=O)cn1,-30.22%,2.205%
Cn1cnc(S(=O)(=O)N2CCCCc3ccccc32)c1,-1.434%,-6.134%
Cc1cc(C)nc(N2CCN(Cc3nccn3C)CC2)n1.O=CO,-2.711%,-14.52%
CN1CCN(Cc2noc(CCc3nc(-c4ccccc4)no3)n2)CC1,-15.03%,15%
CNC(=O)c1[nH]nc2c1CN(c1cc(C3CCCNC3)nc(C)n1)CC2 (stereo not shown),-60.02%,-9.644%
Cc1cnc(CCNC(=O)C2CCN(S(=O)(=O)c3ccc(F)cc3)C2)s1 (stereo not shown),9.577%,2.074%
Cc1cnn(-c2ccc(C(=O)N3CCN(C)CC3C)cc2)c1 (stereo not shown),0.2478%,1.39%
CCNC(=O)N1CCC(NC(=O)NCCc2cc3ccccc3o2)C1 (stereo not shown),-7.507%,-0.4005%
CC(C)(C)C(=O)N1CCN(CCOc2cccc(C#N)c2)CC1,-2.084%,12.24%
Fc1cnc(N2CCn3cc(CNc4ccccn4)nc3C2)nc1.O=C(O)C(F)(F)F.O=C(O)C(F)(F)F,-32.54%,2.244%
Cc1cc(C)n(CC2CCCN2C(=O)c2c[nH]c(=O)c(Cl)c2)n1 (stereo not shown),-4.812%,-24.04%
CNC(=O)c1nnn(-c2ccccc2F)c1-c1ccccn1,15.29%,8.366%
O=C1N(c2cccc(F)c2)Cc2nc(=O)n(Cc3ccc(Cl)cc3)n21,-4.739%,11.86%
CCC(=O)N(C)Cc1cccc(OC(C)C)c1,-28.5%,-0.8039%
O=C(CS(=O)(=O)Cc1ccccc1)NC1CCCCNC1=O (stereo not shown),-,18.46%
O=C(O)C(F)(F)F.[H][C@@]12C[C@@H](c3nc(C)no3)CN(Cc3sccc3C)[C@]1([H])CCO2,-5.106%,9.473%
Cc1nc[nH]c1CN1CCCC12CCN(c1nc3ccccc3s1)CC2,34.36%,10.28%
Cl.Clc1ccccc1OCCc1cc(C2CCNC2)n[nH]1 (stereo not shown),-6.852%,-5.116%
O=C(CN1CCCC1Cn1cccn1)NCCOc1cccc(F)c1 (stereo not shown),-14.23%,-1.983%
CC(=O)N1CCC2(CC1)COCCN2Cc1ccc(F)cc1.O=C(O)C(F)(F)F,-,-2.421%

7 of the entries, repeated:

| Compound | T. brucei | Toxoplasma |
|---|---|---|
| `O=C(c1cscn1)N1CCCC12CCCN(S(=O)(=O)c1ccccc1)C2` (stereo not shown) | -28.31% | -1.806% |
| `O=C(O)C(F)(F)F.[H][C@@]12COC[C@]1(COCC(=O)N(C)C)CN(Cc1ccco1)C2` | -53.67% | 25.47% |
| `Cc1nc2n(n1)CC(NCc1csc(-c3ccsc3)n1)CC2` (stereo not shown) | 10.08% | 12.68% |
| `CCC(C)NC(=O)c1ccc(NC(=O)CCCn2cncn2)c(C)c1` (stereo not shown) | 3.513% | -5.361% |
| `CCn1ccnc1CN1CCCC(N(C)CCc2ccccc2)C1` (stereo not shown) | -6.681% | 3.812% |
| `O=C(NCCNc1ncccn1)C1CCN(c2ncccn2)CC1` | 21.92% | 8.078% |
| `O=C1N(c2cccc(F)c2)Cc2nc(=O)n(Cc3ccc(Cl)cc3)n21` | -4.739% | 11.86% |

Source: ChEMBL document CHEMBL3988442, “University of Dundee, Small-Polar-MMV Screening Library” (2021).